Patent publication US11234979B2, “Heteroaryl compounds as muscarinic M1 receptor positive allosteric modulators” (SUVEN LIFE SCIENCES LIMITED, priority 2017, dated 2022)

Test system: hippocampal theta oscillations
Assay: Theta modulation in dorsal hippocampus of anesthetized rats in combination with donepezil
Assay type: in vivo, Male Wistar rats
Settings: anesthetized rat, donepezil alone 0.3 mg/kg, i.v.
From the text: Evaluation of Theta Modulation in Dorsal Hippocampus of Anesthetized Male Wistar
Male Wistar rats (240-320 g) were anesthetized by Intraperitoneal administration of urethane (1.2 to 1.5 g/kg) for implantation of a catheter in the left femoral vein. The animal was placed in a stereotaxic frame for implanting an electrode (stainless steel wire, Plastics One) into the dorsal hippocampus (AP: −3.8 mm; ML: +2.2 mm; DV: −2.5 mm; Paxinos and Watson, 2004). Bipolar stimulating electrode (untwisted stainless steel wires, separated by 0.75-1.0 mm at their tips, Plastics One) was implanted in the Nucleus Pontis Oralis (NPO; AP: −7.8 mm; ML: 1.8 mm; DV: −6.0 mm; Paxinos and Watson, 2004). Additionally one electrode was implanted into the cerebellum which served as a reference. Hippocampal θ rhythm was evoked via a 6-s electrical stimulation train (20-160 μA, 0.3-ms pulse duration, 250 Hz) delivered to the NPO at a rate of 0.01 trains/s with a Grass S88 stimulator and PSIU6 stimulus isolation unit (Grass Medical Instruments, Quincy, Mass.). EEG was recorded at a rate of 1000 Hz using Ponemah (Version 5.2) software and stored for off-line analysis using NeuroScore (Version 3.0). […]
Power in the θ rhythm frequency in the stimulation period during the 30-min baseline period was calculated and the % changes in these measures post treatment were calculated. […]

## COc1cc2c(cc1OC)C(=O)C(CC1CCN(Cc3ccccc3)CC1)C2 (stereo not shown) [donepezil, reference compound]
  hippocampal θ power: moderate increase
